Experimental data from PMC8004883.
For at least one entry, the source does not settle the construct or the ends of the probe. Where cells or extracts were used, other partners may take part. For part of these data: Negatives hold for the conditions tested.

Tests used:
[1] = test system: integrin alpha6 (on 4175-LuT exosomes) + integrin beta4 (on 4175-LuT exosomes); assay: SEM of exosomes captured on poly-T passivated chip; conditions: exosomes 1e8/mL, 1 h, 0.005% PBSt, surface nearly free of exosomes; 5' thiol (HS); 1x PBS + 0.005% Tween-20 (PBSt); pH and temperature not stated; probe immobilised in 1x PBS + 1 M NaCl; protein on the cell surface; single-stranded DNA
[2] = test system: integrin alpha6 (on 4175-LuT exosomes) + integrin beta4 (on 4175-LuT exosomes); assay: SPR; conditions: phase-sensitive SPR, exosomes 1.5e6/mL, 1x PBS + 0.005% Tween-20, slow dissociation, anti-CD9 confirmation; 5' thiol (HS); 1x PBS + 0.005% Tween-20 (PBSt); pH and temperature not stated; probe immobilised in 1x PBS + 1 M NaCl; protein on the cell surface; single-stranded DNA
[3] = test system: integrin alpha6 (on 4175-LuT exosomes) + integrin beta4 (on 4175-LuT exosomes); assay: SEM of exosomes captured on aptamer-modified chip; conditions: exosomes 1e8/mL, 1 h, 0.005% PBSt; 5' thiol (HS); 1x PBS + 0.005% Tween-20 (PBSt); pH and temperature not stated; probe immobilised in 1x PBS + 1 M NaCl; protein on the cell surface; single-stranded DNA

| Sequence | binding result [1] | binding result [2] | binding result [3] |
| --- | --- | --- | --- |
| TTTTTTTTTT [thiolated poly-thymine (T10 spacer)] | no binding | – | – |
| TTTTTTTTTTCGTGCGTATTCGTACTGGAACTGATATCGATGTCCC [IDAB aptamer with 5' T10] | – | binds | binds |
